Results reported in PMC8089095.

Sequences of proteins named here, by UniProt entry; tags and fusion partners are left off.
UniProt O43474: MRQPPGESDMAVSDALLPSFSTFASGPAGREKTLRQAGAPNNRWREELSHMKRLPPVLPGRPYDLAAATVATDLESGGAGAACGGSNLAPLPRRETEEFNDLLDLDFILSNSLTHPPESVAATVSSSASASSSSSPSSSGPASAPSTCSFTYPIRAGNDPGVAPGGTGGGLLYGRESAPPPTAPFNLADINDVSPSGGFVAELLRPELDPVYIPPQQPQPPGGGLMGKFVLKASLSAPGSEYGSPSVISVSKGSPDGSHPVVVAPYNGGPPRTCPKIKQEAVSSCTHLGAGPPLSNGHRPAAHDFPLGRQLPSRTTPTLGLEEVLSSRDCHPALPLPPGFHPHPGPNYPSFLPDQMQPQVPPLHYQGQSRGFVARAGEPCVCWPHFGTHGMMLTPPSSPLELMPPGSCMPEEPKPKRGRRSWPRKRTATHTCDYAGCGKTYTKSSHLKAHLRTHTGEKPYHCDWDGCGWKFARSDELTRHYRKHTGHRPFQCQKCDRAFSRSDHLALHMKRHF

Biological target: T1, Flag-ITIH5 (inter-alpha-trypsin inhibitor heavy chain 5) (UniProt Q86UX2)
T1 sequence: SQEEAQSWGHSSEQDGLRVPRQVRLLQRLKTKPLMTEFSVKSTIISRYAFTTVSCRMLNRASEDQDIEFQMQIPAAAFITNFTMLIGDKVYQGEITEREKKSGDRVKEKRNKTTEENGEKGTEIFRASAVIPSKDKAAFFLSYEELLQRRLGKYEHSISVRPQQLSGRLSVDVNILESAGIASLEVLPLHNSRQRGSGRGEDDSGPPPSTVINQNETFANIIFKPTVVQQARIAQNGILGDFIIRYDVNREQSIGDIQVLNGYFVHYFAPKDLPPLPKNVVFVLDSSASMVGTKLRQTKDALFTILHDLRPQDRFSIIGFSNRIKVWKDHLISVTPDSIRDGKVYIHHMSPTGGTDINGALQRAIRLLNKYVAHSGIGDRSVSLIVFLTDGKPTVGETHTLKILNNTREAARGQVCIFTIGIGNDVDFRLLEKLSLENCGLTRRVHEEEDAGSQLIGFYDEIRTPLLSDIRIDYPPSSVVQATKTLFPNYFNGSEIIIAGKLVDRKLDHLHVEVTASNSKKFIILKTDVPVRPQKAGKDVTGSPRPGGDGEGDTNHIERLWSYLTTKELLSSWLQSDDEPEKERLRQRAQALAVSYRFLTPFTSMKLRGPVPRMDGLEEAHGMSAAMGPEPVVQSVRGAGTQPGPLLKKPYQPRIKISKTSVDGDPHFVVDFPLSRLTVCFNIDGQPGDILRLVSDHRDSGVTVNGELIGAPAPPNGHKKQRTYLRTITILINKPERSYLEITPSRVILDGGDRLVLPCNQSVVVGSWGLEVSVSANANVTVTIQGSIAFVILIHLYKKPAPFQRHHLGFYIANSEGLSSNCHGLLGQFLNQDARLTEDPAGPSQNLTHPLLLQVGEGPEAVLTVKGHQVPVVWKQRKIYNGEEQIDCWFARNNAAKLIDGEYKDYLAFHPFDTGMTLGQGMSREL
Experiment: affinity purification with mass spectrometry; 293T cell lysates with or without Flag-ITIH5 overexpression incubated with Flag antibody; bound proteins eluted, SDS-PAGE, CBB staining, band identified

- binding: binds
Substance: KLF4, endogenous in 293T cells (from UniProt O43474 1-513)

These are yes or no findings as the source states them, for the method shown. Binding seen in cells or lysates may run through a third protein. Here binding means that the protein was enriched with, or labelled near, the bait; the list need not be complete. Sequences can lack the tags named with a protein.
